Results as given in patent US20190216726A1, “Particles, Compositions and Methods for Ophthalmic and/or Other Applications” (priority 2016, published 2019).
For part of these data: At least one compound was matched to its structure with a doubt left. Some entries share one result that the patent states for a list of compounds.

Tests used:
[1] = DLS particle size and PDI of hydrocortisone derivatives milled with Pluronic F127 (Examples 8, 9); type: physicochemical; settings: 5% compound, 5% F127 in PBS pH 7.1, milled 25 hours
Experimental: A milling procedure was employed in which aqueous dispersions containing coarse compound particles were individually milled with F127 at near-neutral pH buffer using a grinding medium. Briefly, a slurry containing 5% of compound and 5% F127 in PBS (0.0067 M PO4^3−), pH 7.1 was added to an equal bulk volume of 1-mm ceria-stabilized zirconium oxide beads in a glass vial (e.g., 2 mL of slurry per 2 mL of beads). A magnetic stir bar was used to agitate the beads, stirring at approximately 500 rpm at ambient conditions for 25 hours.
The milled suspensions were subjected to dynamic light scattering (DLS) measurements to determine particle size and polydispersity index (PDI, a measure of the width of the particle size distribution). The samples for DLS measurements were buffered with HyClone™ PBS (Phosphate-Buffered Saline) to produce isotonic samples that have a physiologically relevant pH.
Form 3-B was wet-milled using the same method that generated the data in Tables 13 and 14.

[2] = DLS particle size and PDI of drugs milled with F127 or SDS (Example 6); type: physicochemical
From the text: The technique described in Example 1 was applied to other non-polymeric solid particles to show the versatility of the approach. […] Table 12 lists the particle sizes for a representative selection of drugs that were milled using this method.

[3] = drug milled with stabilizer F127
[4] = drug milled with stabilizer SDS

Compound	Size (Z-averaged) of milled suspension [1] [nm]	PDI [2, 3]	Z-Ave D [2, 3] [nm]	PDI [2, 4]	Z-Ave D [2, 4] [nm]
C[C@]12CCC(=O)C=C1CC[C@@H]1[C@@H]2[C@@H](O)C[C@@]2(C)[C@H]1CC[C@]2(OC(=O)c1ccco1)C(=O)CO [Compound 2, (10R,11S,13S,17R)-11-hydroxy-17-(2-hydroxyacetyl)-10,13-dimethyl-3-oxo-2,3,6,7,8,9,10,11,12,13,14,15,16,17-tetradecahydro-1H-cyclopenta[a]phenanthren-17-yl furan-2-carboxylate]	< 350	–	–	–	–
CCC(C)n1ncn(-c2ccc(N3CCN(c4ccc(OCC5COC(Cn6cncn6)(c6ccc(Cl)cc6Cl)O5)cc4)CC3)cc2)c1=O (stereo not drawn) [Itraconazole]	–	0.158	155	0.163	168
CCCC1O[C@@H]2C[C@H]3[C@@H]4CCC5=CC(=O)C=C[C@]5(C)[C@H]4[C@@H](O)C[C@]3(C)[C@]2(C(=O)CO)O1 (stereo partly drawn) [Budesonide]	–	0.112	173	0.135	194
